Reference: paper PMC5958119
Results are given in words; binding and its absence hold for the method and conditions named. In cells and extracts the contact can be indirect. Some entries that bind do so weakly or less than the wild type.

Chains of the proteins cited; added tags and fusions are not shown. Lines headed by an entry give the natural chain unless they say otherwise; changes in a name come on top.
UniProt Q96QB1: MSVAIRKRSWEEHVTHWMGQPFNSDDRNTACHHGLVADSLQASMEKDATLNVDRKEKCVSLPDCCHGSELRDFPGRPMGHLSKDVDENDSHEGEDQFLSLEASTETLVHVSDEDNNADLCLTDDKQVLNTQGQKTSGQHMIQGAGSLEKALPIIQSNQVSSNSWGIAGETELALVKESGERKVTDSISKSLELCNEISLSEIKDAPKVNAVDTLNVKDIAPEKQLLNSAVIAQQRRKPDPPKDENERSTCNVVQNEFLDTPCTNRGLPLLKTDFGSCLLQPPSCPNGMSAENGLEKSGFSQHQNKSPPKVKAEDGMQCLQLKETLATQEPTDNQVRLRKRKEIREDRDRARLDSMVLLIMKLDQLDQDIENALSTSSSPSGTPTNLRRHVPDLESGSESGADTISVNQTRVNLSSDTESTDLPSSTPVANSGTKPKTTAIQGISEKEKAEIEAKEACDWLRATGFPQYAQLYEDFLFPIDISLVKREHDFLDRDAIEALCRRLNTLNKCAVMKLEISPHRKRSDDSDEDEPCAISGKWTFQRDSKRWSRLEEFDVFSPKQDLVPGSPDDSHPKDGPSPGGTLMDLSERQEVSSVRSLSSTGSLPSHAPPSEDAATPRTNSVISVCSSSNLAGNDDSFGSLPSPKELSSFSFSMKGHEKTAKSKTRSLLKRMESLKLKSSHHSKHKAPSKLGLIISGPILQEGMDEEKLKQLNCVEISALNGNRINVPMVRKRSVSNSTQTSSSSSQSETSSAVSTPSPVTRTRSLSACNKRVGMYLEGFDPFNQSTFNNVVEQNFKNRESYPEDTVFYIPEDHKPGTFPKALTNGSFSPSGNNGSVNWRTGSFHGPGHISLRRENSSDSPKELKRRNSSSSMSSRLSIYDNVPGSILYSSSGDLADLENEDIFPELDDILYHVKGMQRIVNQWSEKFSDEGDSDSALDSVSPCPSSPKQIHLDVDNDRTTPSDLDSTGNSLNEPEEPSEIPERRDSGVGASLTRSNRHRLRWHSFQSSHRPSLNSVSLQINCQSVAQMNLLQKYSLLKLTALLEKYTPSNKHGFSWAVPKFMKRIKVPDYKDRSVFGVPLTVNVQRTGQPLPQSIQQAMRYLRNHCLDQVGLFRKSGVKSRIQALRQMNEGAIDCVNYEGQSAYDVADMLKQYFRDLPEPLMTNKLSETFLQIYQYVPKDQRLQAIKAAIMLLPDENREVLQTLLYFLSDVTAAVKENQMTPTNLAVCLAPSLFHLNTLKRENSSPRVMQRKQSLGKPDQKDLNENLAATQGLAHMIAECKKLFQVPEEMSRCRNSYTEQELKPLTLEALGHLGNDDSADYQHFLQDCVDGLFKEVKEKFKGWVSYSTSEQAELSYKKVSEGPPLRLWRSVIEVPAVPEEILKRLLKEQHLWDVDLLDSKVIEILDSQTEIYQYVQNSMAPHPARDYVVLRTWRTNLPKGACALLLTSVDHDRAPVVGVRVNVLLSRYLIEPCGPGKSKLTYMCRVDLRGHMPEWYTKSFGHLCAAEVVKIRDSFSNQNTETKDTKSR
UniProt O88382: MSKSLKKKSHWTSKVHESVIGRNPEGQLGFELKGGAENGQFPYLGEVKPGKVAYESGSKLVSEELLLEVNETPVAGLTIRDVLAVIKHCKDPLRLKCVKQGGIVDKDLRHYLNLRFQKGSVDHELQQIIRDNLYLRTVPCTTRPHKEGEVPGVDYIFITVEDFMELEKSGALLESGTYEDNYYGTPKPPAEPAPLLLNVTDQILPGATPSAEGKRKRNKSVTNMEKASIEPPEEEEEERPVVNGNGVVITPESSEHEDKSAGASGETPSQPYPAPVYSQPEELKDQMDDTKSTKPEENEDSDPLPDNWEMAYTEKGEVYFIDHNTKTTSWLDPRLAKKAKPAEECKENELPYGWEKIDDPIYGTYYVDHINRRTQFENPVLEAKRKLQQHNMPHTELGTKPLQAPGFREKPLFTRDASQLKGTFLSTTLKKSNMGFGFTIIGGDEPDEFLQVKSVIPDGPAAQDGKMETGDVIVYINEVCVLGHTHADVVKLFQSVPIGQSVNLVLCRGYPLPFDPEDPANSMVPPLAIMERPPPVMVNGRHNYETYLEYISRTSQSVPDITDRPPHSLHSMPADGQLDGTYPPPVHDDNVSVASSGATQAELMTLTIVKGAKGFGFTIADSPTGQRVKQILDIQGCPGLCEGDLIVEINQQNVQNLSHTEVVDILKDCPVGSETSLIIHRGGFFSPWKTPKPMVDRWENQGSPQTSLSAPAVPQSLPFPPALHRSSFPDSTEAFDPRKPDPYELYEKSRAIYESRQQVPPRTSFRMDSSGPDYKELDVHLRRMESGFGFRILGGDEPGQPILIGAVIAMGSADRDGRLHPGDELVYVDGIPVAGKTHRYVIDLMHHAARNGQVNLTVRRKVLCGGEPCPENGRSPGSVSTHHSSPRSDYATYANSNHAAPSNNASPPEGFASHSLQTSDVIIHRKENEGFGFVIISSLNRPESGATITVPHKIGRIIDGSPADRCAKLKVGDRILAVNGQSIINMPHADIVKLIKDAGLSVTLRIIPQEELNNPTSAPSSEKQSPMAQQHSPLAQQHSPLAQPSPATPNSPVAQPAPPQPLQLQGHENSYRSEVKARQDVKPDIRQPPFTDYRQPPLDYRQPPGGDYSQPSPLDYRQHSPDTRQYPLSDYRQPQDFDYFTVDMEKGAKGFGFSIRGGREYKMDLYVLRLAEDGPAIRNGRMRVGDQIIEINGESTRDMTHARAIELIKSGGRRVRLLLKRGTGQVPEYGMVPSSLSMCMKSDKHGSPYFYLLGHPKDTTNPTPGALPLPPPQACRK

Tests used:
[1] = molecular target: T1, TNS2 mutant p.Ile858Met (not stated (human or mouse cDNA cloned)) (UniProt Q63HR2); assay: co-IP; co-overexpression in HEK293T cells; lysates pre-cleared with protein G or A beads, antibody overnight at 4 °C in lysis buffer with protease inhibitors, protein G or A beads (GFP-Trap agarose for GFP fusions), washed four times, immunoblot; confirmatory co-IPs for several pairs; DLC1 with CAV1 also reciprocal in cells pre- and post-treated with 100 uM dexamethasone, results not altered
T1 sequence: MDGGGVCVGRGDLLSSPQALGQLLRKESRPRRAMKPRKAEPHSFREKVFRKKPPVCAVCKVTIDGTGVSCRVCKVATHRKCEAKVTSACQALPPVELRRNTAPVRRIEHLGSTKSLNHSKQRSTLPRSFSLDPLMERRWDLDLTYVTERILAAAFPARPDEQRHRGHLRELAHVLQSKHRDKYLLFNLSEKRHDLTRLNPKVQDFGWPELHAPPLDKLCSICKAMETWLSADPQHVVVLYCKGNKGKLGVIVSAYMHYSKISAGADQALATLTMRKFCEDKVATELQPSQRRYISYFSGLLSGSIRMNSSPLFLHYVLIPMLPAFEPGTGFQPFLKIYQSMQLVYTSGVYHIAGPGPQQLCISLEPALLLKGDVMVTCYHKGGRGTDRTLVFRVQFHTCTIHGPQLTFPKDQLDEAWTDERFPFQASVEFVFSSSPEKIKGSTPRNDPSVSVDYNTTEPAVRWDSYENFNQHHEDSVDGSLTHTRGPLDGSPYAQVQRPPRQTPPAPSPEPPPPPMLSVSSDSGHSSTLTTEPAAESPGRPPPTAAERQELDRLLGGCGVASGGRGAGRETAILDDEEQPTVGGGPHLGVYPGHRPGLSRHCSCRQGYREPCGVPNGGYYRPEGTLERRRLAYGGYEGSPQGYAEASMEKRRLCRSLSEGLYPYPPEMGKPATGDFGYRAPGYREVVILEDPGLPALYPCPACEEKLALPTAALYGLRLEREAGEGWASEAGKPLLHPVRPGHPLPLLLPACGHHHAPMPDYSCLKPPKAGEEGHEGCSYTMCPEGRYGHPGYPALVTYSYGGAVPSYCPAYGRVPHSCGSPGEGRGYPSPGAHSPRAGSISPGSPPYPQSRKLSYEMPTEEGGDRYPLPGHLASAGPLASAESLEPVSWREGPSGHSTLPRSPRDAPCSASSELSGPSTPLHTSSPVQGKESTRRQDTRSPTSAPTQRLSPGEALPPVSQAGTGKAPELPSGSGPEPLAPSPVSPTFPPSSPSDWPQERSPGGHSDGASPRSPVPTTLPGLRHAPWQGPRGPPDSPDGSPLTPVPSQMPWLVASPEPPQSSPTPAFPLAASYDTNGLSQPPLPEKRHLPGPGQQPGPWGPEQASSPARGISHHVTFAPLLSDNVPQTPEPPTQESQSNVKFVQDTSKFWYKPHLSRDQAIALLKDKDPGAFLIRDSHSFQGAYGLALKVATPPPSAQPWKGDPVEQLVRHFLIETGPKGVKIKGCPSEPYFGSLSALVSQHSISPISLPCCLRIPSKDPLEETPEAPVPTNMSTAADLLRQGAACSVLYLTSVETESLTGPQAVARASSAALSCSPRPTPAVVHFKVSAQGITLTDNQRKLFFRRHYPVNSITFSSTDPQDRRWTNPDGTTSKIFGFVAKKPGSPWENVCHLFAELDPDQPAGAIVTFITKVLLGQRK

[2] = molecular target: DLC1 (deleted in liver cancer 1) wild type (human) (UniProt Q96QB1); assay: as above

- binding [1]: binds
- binding [2]: binds
Substance: MAGI2 wild type (rat Magi2, S-SCAM, full-length cDNA) (from UniProt O88382 1-1277)
